According to paper PMC11802874, “The hypolipidemic effect of MI-883, the combined CAR agonist/ PXR antagonist, in diet-induced hypercholesterolemia model” (Nature Communications, 2025):
No constants are given. Whether binding was seen depends on the method and setting. For some assays here: A result given as binding can be weak or reduced; the word gives no strength. Where a sequence is shown, tags or fusion partners need not be part of it.

Columns and labels:
[1] = biological target: GAL4-DBD/NCOR2-RID (residues 1109–1330); experiment: two-hybrid; mammalian two-hybrid PXR-corepressor release assay in HepG2 cells: GAL4-DBD/NCOR2-RID and VP16-AD/PXR(108-434) with RXRα expression plasmid, pGL4-G5 reporter; vehicle
[2] = biological target: GAL4-DBD/NCOR2-RID (residues 1109–1330); experiment: two-hybrid; mammalian two-hybrid PXR-corepressor release assay in HepG2 cells: GAL4-DBD/NCOR2-RID and VP16-AD/PXR(108-434) with RXRα expression plasmid, pGL4-G5 reporter; cells treated with MI-883 for 24 h

binding [1]: binds | binding [2]: no binding (only with MI-883)
B1: VP16-AD/PXR(108-434) (domain or fragment, UniProt O75469 108-434)
chain: KKEMIMSDEAVEERRALIKRKKSERTGTQPLGVQGLTEEQRMMIRELMDAQMKTFDTTFSHFKNFRLPGVLSSGCELPESLQAPSREEAAKWSQVRKDLCSLKVSLQLRGEDGSVWNYKPPADSGGKEIFSLLPHMADMSTYMFKGIISFAKVISYFRDLPIEDQISLLKGAAFELCQLRFNTVFNAETGTWECGRLSYCLEDTAGGFQQLLLEPMLKFHYMLKKLQLHEEEYVLMQAISLFSPDRPGVLQHRVVDQLQEQFAITLKSYIECNRPQPAHRFLFLKIMAMLTELRSINAQHTQRLLRIQDIHPFATPLMQELFGITGS
